According to ChEMBL document CHEMBL4316593 (Eur J Med Chem, 2019):
This continues a long series; more values of the same kind are listed elsewhere.

Tests used:
Format in all cases: cell-based
Details in all cases: U-87MG ATCC
[1] = Inhibition of RTK/PI3K/AKT/mTOR signaling in human U87 cells assessed as down regulation of YTHDC1 gene expression at cytotoxic IC50 measured after 48 hrs relative to control
[2] = Inhibition of RTK/PI3K/AKT/mTOR signaling in human U87 cells assessed as down regulation of CAPN5 gene expression at cytotoxic IC50 measured after 48 hrs relative to control
[3] = Inhibition of RTK/PI3K/AKT/mTOR signaling in human U87 cells assessed as up regulation of myeloid associated differentiation marker gene expression at cytotoxic IC50 measured after 48 hrs relative to control
[4] = Inhibition of RTK/PI3K/AKT/mTOR signaling in human U87 cells assessed as down regulation of NEIL3 gene expression at cytotoxic IC50 measured after 48 hrs relative to control
[5] = Inhibition of RTK/PI3K/AKT/mTOR signaling in human U87 cells assessed as up regulation of THO complex 2 gene expression at cytotoxic IC50 measured after 48 hrs relative to control
[6] = Inhibition of RTK/PI3K/AKT/mTOR signaling in human U87 cells assessed as up regulation of microtubule associated scaffold protein 1 gene expression at cytotoxic IC50 measured after 48 hrs relative to control
[7] = Inhibition of RTK/PI3K/AKT/mTOR signaling in human U87 cells assessed as up regulation of unc-93 homolog B1 (C. elegans) gene expression at cytotoxic IC50 measured after 48 hrs relative to control
[8] = Inhibition of RTK/PI3K/AKT/mTOR signaling in human U87 cells assessed as up regulation of anaphase promoting complex subunit 16 gene expression at cytotoxic IC50 measured after 48 hrs relative to control
[9] = Inhibition of RTK/PI3K/AKT/mTOR signaling in human U87 cells assessed as down regulation of HABP4 gene expression at cytotoxic IC50 measured after 48 hrs relative to control
[10] = Inhibition of RTK/PI3K/AKT/mTOR signaling in human U87 cells assessed as up regulation of THSD4 gene expression at cytotoxic IC50 measured after 48 hrs relative to control
[11] = Inhibition of RTK/PI3K/AKT/mTOR signaling in human U87 cells assessed as down regulation of PCDHGA10 gene expression at cytotoxic IC50 measured after 48 hrs relative to control
[12] = Inhibition of RTK/PI3K/AKT/mTOR signaling in human U87 cells assessed as up regulation of RPL35A gene expression at cytotoxic IC50 measured after 48 hrs relative to control
[13] = Inhibition of RTK/PI3K/AKT/mTOR signaling in human U87 cells assessed as up regulation of EEF1A1 gene expression at cytotoxic IC50 measured after 48 hrs relative to control
[14] = Inhibition of RTK/PI3K/AKT/mTOR signaling in human U87 cells assessed as up regulation of KCNH3 gene expression at cytotoxic IC50 measured after 48 hrs relative to control
[15] = Inhibition of RTK/PI3K/AKT/mTOR signaling in human U87 cells assessed as up regulation of FCH domain only 1 gene expression at cytotoxic IC50 measured after 48 hrs relative to control
[16] = Inhibition of RTK/PI3K/AKT/mTOR signaling in human U87 cells assessed as down regulation of SEMA3C gene expression at cytotoxic IC50 measured after 48 hrs relative to control
[17] = Inhibition of RTK/PI3K/AKT/mTOR signaling in human U87 cells assessed as down regulation of C9orf78 gene expression at cytotoxic IC50 measured after 48 hrs relative to control
[18] = Inhibition of RTK/PI3K/AKT/mTOR signaling in human U87 cells assessed as up regulation of RPL14 gene expression at cytotoxic IC50 measured after 48 hrs relative to control
[19] = Inhibition of RTK/PI3K/AKT/mTOR signaling in human U87 cells assessed as up regulation of ASS1 gene expression at cytotoxic IC50 measured after 48 hrs relative to control
[20] = Inhibition of RTK/PI3K/AKT/mTOR signaling in human U87 cells assessed as down regulation of PSMD2 gene expression at cytotoxic IC50 measured after 48 hrs relative to control
[21] = Inhibition of RTK/PI3K/AKT/mTOR signaling in human U87 cells assessed as up regulation of GNG4 gene expression at cytotoxic IC50 measured after 48 hrs relative to control
[22] = Inhibition of RTK/PI3K/AKT/mTOR signaling in human U87 cells assessed as up regulation of enolase 3 gene expression at cytotoxic IC50 measured after 48 hrs relative to control
[23] = Inhibition of RTK/PI3K/AKT/mTOR signaling in human U87 cells assessed as up regulation of ubiquitin like 4A gene expression at cytotoxic IC50 measured after 48 hrs relative to control
[24] = Inhibition of RTK/PI3K/AKT/mTOR signaling in human U87 cells assessed as up regulation of NOD2 gene expression at cytotoxic IC50 measured after 48 hrs relative to control
[25] = Inhibition of RTK/PI3K/AKT/mTOR signaling in human U87 cells assessed as down regulation of DLST gene expression at cytotoxic IC50 measured after 48 hrs relative to control
[26] = Inhibition of RTK/PI3K/AKT/mTOR signaling in human U87 cells assessed as down regulation of CXCL8 gene expression at cytotoxic IC50 measured after 48 hrs relative to control
[27] = Inhibition of RTK/PI3K/AKT/mTOR signaling in human U87 cells assessed as up regulation of STT3B, catalytic subunit of the oligosaccharyltransferase complex gene expression at cytotoxic IC50 measured after 48 hrs relative to control
[28] = Inhibition of RTK/PI3K/AKT/mTOR signaling in human U87 cells assessed as down regulation of DNAJB9 gene expression at cytotoxic IC50 measured after 48 hrs relative to control
[29] = Inhibition of RTK/PI3K/AKT/mTOR signaling in human U87 cells assessed as down regulation of RNF11 gene expression at cytotoxic IC50 measured after 48 hrs relative to control
[30] = Inhibition of RTK/PI3K/AKT/mTOR signaling in human U87 cells assessed as down regulation of AEN gene expression at cytotoxic IC50 measured after 48 hrs relative to control
[31] = Inhibition of RTK/PI3K/AKT/mTOR signaling in human U87 cells assessed as up regulation of FAM83H-AS1 gene expression at cytotoxic IC50 measured after 48 hrs relative to control
[32] = Inhibition of RTK/PI3K/AKT/mTOR signaling in human U87 cells assessed as up regulation of chromodomain helicase DNA binding protein 3 gene expression at cytotoxic IC50 measured after 48 hrs relative to control

Work on `CC(=O)C(=NNc1ccccc1C#N)C(C)=O` yielded a log2FC [1] of -0.578, a log2FC [2] of -1.93 and a log2FC [3] of 0.88. For the same compound, the log2FC [4] was -0.996, the log2FC [5] was 0.755 and the log2FC [6] was 1.4. The log2FC [7] was 1.33, the log2FC [8] was 0.768 and the log2FC [9] was -1.34. The log2FC [10] was 1.85, the log2FC [11] was -1.05 and the log2FC [12] was 0.506. The log2FC [13] was 0.546, the log2FC [14] was 1.71 and the log2FC [15] was 1.12. The log2FC [16] was -1.27, the log2FC [17] was -1.02 and the log2FC [18] was 0.423. The log2FC [19] was 1.81, the log2FC [20] was -1.26 and the log2FC [21] was 1.91. It also gave a log2FC [22] of 1.43, a log2FC [23] of 0.996 and a log2FC [24] of 1.9. The log2FC [25] was -0.44, the log2FC [26] was -2.26 and the log2FC [27] was 1.03. It also gave a log2FC [28] of -0.956, a log2FC [29] of -0.432 and a log2FC [30] of -0.471. The log2FC [31] was 1.96 and the log2FC [32] was 1.02.
